No constants are given. Whether binding was seen depends on the method and setting. Sequences can lack the tags named with a protein.
Biological target: T1, SIRT2FL-His6X (full length human sirtuin-2 with a C-terminal His6X tag) (human), Q8IXJ6
T1 chain: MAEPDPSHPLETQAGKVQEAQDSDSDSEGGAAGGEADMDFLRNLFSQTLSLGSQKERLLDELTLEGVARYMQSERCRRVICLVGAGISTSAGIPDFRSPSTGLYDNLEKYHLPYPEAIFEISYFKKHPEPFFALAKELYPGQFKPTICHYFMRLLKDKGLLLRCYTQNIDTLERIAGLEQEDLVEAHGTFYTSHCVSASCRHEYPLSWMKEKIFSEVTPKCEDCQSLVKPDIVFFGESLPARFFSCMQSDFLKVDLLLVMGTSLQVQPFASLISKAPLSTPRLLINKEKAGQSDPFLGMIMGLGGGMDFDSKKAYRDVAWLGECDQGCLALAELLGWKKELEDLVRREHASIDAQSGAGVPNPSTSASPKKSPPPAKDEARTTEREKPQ
Assay: SEC
Conditions: remark: other sources report otherwise

B1: SIRT2FL-His6X (full length human sirtuin-2 with a C-terminal His6X tag), Q8IXJ6 1-389 (enzyme)
chain: T1 chain
  binding: no binding
